According to paper PMC8579991:
Results are given in words; binding and its absence hold for the method and conditions named. In cells and extracts the contact can be indirect. Binding can be weak; no strength is given.

The chains behind the UniProt entries cited, without tags or fusion partners. Where a name states a change or a piece, a line headed by the entry shows the natural chain unless it says otherwise. Residues count along the entry.
UniProt P02647: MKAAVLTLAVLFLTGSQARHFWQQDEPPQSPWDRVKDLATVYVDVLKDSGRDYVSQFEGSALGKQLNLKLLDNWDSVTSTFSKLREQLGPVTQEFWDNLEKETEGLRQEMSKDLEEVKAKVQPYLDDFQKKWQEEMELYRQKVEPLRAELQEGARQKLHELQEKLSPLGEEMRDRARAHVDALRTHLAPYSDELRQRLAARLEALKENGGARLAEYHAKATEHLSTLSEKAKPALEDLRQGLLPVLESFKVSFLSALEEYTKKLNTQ
UniProt P02652: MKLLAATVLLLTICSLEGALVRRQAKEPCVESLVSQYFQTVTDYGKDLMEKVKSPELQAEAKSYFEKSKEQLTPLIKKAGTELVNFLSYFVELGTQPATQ
UniProt Q8NBP7: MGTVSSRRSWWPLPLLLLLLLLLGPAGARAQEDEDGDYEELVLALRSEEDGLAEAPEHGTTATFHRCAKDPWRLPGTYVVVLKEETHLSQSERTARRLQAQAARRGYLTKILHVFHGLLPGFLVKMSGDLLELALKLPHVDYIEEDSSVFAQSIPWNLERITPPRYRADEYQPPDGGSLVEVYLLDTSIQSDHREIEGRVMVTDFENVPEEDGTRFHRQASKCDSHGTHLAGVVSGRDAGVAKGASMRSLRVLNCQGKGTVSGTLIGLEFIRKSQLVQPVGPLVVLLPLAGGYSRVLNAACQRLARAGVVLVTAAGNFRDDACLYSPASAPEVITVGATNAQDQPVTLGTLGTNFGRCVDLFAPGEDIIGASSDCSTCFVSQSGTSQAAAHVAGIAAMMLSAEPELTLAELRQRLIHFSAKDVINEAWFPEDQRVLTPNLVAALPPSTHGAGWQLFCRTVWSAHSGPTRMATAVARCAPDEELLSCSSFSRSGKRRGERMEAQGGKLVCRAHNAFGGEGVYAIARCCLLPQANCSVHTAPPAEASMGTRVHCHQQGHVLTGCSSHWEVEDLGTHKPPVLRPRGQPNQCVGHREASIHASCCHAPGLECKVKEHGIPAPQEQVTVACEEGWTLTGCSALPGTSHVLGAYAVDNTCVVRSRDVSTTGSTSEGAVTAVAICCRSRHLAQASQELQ
UniProt P04114, residues 28-4563: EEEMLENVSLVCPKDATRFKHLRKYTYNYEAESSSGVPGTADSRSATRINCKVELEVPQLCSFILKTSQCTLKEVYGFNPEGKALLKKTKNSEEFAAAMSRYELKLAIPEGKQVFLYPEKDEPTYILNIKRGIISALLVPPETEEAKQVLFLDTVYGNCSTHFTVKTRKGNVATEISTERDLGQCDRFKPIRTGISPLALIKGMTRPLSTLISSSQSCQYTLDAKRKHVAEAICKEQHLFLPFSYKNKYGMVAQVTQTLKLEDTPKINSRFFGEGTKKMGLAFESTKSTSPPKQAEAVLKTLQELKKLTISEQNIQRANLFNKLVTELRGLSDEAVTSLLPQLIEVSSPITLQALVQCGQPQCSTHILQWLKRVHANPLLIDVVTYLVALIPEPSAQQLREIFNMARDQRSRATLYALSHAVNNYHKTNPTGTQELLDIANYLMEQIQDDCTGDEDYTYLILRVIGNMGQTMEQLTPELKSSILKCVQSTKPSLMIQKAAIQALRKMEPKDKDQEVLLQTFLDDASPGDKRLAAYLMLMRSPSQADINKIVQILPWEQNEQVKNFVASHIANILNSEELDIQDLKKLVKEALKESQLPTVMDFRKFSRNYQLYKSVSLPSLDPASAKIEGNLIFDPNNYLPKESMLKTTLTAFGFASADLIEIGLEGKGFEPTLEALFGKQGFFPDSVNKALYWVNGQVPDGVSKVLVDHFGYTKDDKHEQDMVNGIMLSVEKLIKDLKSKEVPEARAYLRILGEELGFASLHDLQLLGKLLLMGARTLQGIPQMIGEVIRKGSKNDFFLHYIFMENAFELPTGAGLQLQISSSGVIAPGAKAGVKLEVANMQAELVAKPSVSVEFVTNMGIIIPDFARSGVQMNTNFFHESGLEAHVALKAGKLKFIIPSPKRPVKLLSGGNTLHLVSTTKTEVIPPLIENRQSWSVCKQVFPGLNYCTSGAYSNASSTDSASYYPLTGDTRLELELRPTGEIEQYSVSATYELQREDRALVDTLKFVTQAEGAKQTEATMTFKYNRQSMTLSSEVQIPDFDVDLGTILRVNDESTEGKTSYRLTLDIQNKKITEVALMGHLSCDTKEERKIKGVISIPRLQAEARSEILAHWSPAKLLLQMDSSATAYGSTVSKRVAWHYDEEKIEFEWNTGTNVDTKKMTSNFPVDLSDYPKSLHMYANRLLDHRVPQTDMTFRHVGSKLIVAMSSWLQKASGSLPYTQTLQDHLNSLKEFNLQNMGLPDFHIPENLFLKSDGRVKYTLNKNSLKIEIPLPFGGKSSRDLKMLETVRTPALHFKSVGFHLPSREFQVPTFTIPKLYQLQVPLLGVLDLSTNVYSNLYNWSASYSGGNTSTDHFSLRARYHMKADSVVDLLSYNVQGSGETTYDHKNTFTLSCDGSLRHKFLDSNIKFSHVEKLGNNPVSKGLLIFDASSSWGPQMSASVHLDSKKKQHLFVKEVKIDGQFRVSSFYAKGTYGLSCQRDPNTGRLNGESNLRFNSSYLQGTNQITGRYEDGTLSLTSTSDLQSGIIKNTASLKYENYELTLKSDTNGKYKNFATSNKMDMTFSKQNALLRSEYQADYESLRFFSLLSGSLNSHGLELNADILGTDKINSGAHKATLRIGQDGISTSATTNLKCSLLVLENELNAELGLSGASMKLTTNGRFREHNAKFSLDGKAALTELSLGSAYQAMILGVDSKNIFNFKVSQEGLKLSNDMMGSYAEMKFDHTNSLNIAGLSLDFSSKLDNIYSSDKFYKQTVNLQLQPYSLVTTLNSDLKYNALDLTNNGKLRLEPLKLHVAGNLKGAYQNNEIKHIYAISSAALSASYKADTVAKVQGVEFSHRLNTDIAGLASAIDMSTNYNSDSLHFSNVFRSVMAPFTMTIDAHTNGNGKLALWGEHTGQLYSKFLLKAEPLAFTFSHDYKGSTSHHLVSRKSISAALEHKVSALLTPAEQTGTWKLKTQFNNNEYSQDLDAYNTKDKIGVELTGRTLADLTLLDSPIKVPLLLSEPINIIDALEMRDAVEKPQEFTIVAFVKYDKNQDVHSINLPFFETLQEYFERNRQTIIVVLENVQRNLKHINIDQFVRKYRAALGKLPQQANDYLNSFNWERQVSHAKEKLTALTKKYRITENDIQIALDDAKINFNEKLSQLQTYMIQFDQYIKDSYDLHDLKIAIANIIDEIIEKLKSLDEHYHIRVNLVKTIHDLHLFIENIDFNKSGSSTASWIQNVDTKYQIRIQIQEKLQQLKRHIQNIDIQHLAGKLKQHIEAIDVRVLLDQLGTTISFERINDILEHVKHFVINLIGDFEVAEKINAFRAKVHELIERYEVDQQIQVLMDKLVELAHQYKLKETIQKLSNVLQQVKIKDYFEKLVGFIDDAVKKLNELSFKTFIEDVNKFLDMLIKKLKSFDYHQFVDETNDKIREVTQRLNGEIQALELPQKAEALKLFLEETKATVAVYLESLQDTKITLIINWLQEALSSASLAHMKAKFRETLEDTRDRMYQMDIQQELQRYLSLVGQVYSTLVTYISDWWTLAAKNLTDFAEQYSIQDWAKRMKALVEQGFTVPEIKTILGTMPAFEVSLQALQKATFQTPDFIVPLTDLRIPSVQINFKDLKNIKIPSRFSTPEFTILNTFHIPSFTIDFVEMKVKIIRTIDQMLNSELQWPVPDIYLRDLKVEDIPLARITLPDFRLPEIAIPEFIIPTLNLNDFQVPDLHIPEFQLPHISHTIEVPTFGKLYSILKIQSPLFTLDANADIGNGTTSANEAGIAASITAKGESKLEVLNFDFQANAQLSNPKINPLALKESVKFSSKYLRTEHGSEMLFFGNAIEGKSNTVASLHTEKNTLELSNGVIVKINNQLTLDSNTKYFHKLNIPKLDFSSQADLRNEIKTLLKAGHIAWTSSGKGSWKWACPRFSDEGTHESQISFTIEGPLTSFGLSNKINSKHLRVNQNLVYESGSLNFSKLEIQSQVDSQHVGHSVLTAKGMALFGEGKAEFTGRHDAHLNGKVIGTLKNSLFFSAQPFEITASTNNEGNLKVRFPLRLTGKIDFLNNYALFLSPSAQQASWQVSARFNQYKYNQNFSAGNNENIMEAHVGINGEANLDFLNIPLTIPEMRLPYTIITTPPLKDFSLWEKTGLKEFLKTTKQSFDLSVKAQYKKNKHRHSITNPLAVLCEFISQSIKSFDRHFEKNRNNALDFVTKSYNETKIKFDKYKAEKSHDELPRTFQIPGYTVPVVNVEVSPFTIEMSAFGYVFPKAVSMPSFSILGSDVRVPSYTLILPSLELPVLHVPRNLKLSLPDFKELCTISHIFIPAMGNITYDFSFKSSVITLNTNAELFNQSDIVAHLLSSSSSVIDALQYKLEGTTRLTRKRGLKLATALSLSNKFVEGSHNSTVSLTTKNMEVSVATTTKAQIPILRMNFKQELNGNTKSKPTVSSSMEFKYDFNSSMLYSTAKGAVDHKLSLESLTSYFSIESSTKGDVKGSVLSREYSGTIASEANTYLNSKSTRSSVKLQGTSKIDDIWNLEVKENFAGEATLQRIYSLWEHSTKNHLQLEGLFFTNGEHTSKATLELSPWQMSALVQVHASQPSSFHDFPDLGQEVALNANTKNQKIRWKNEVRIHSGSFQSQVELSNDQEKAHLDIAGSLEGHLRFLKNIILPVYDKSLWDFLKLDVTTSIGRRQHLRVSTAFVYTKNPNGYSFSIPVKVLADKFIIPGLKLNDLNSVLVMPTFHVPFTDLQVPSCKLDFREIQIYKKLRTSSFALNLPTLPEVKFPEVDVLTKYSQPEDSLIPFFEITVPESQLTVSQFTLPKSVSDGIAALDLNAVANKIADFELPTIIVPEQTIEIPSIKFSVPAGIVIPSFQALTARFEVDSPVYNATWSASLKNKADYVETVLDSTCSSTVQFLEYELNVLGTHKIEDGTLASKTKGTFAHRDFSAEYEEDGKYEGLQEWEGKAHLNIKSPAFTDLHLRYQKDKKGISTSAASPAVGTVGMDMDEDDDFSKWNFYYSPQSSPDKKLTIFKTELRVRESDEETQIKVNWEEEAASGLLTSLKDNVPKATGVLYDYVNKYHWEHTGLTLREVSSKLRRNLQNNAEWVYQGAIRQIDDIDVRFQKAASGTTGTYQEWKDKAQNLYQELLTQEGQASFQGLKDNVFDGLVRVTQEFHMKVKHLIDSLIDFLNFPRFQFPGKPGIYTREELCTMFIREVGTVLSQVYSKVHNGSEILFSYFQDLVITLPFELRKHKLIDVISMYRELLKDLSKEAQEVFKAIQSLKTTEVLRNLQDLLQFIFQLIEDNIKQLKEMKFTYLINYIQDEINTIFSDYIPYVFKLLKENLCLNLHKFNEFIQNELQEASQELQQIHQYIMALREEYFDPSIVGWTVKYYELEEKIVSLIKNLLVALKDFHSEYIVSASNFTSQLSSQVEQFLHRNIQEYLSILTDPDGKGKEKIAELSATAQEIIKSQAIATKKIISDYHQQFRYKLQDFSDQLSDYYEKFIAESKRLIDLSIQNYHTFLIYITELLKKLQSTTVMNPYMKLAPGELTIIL

Columns and labels:
[1] = molecular target: apolipoprotein A1 (apoA1) (human (endogenous in plasma)) (UniProt P02647); assay: cross-linking; XLMS with DSSO on ucHDL spiked with recombinant PCSK9 before analysis; cross-links of PCSK9 to HDL proteins; only the binder purified
[2] = molecular target: apolipoprotein A1 (apoA1) (human (endogenous in plasma)) (UniProt P02647); assay: cross-linking; XLMS with DSSO; which sample (plasma, immunoHDL or ucHDL) is not told
[3] = molecular target: apolipoprotein A2 (apoA2) (human (endogenous in plasma)) (UniProt P02652); assay: cross-linking; XLMS with DSSO on ucHDL; cross-links among the HDL's own proteins
[4] = molecular target: apolipoprotein A2 (apoA2) (human (endogenous in plasma)) (UniProt P02652); assay: cross-linking; XLMS with DSSO (1 mmol/L) on immunoHDL (HDL immuno-isolated from plasma, n=8 healthy subjects, pooled)

recombinant HIS (polyhistidine)-tagged PCSK9 (from UniProt Q8NBP7)
binding [1]: binds

apolipoprotein B (apoB) (from UniProt P04114 28-4563)
binding [2]: binds

B1: apolipoprotein C1 (apoC1) (protein, UniProt P02654 27-83)
chain: TPDVSSALDKLKEFGNTLEDKARELISRIKQSELSAKMREWFSETFQKVKEKLKIDS
binding [3]: binds | binding [4]: binds
